According to patent publication US20200181248A1 (Chugai, published 2020):
No constants are given. Whether binding was seen depends on the method and setting. Some binding calls cover weakened binding; strength is not graded here.

Sequences of proteins named here, by UniProt entry; tags and fusion partners are left off. A change or cut given only in a name is not applied to a line headed by its entry.
UniProt P51654: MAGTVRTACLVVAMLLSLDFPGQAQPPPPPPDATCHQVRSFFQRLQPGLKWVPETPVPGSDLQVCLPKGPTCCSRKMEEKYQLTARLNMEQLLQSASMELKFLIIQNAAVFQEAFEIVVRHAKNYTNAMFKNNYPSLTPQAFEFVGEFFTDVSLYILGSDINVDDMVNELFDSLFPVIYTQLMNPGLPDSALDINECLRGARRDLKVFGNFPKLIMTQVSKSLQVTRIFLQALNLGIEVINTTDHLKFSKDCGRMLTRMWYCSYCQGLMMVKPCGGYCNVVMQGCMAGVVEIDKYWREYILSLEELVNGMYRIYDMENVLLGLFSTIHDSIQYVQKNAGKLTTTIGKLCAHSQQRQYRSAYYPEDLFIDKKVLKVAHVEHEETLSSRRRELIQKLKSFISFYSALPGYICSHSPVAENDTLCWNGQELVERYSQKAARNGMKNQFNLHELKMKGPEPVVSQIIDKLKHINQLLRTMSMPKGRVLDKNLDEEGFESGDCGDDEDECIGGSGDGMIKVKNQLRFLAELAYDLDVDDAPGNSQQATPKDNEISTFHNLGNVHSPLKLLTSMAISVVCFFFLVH

What was measured:
[1] = target: soluble form of the human GPC3 core protein (Ser 495 and Ser 509 substituted with Ala, His tag at the C terminus) (human) (UniProt P51654); experiment: western blotting of the soluble GPC3 core protein (band of 40 kDa)
[2] = target: secreted form of GPC3 (in the culture supernatant of HepG2 and in the plasma/serum of mice transplanted with HepG2) (human) (UniProt P51654); experiment: sandwich ELISA, combinations M6B1-M18D4 and M19B11-M18D4
[3] = target: secreted form of GPC3 (in the culture supernatant of HepG2 and in the plasma/serum of mice transplanted with HepG2) (human) (UniProt P51654); experiment: sandwich ELISA; biotin-labeled M18D4 as detecting antibody
[4] = target: soluble form of the human GPC3 core protein (Ser 495 and Ser 509 substituted with Ala, His tag at the C terminus) (human) (UniProt P51654); experiment: ELISA screening of hybridoma supernatants on GPC3 core protein

binding [1]: binds
binding [2]: binds
binding [3]: binds
binding [4]: binds
B1: M18D4 (antibody, human IgG1, kappa, V domains shown)
VH: EVQLQQSGTVLARPGASVKMSCKASGYTFTGYWMRWVKQRPGQGLEWIGAIYPGNSDTTYNQKFKGKAKLTAVTSVSTAYMELSSLTNEDSAVYYCSRSGDLTGGFAYWGQGTLVTVST
VL: DIVMTQAAFSNPVTLGTSTSISCRSSKSLLHSNGITYLYWYLQKPGQSPQLLIYQMSNLASGVPDRFSSSGSGTDFTLRISRVEAEDVGVYYCAQNLELPYTFGSGTKLEIKR
